PubChem BioAssay AID652243 | Drosophila RNAi Screening Center | 2013
The deposit covers about 24,000 reagents; this is an unselected part of those that have a named target and a result. In the full data, 246 (1%) were called active. 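Plates not normalised; calls are printed but the firefly/Renilla ratio behind them is not deposited; fold cut for lowering reported inconsistently.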 Raw values vary from plate to plate and are shown uncorrected. Unmarked entries are inactive. Reagents against one gene are numbered here. A plus sign joins genes that one reagent is predicted to hit. Not stated in the record: the amount of reagent.

Screen: 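Fly regulators of androgen-dependent reporter output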 (primary screen)
Cells: Drosophila S2R+ cells
Reagent: long dsRNA against Drosophila genes
Duration: 72 h (48 h, then 24 h hormone)
Challenge: synthetic androgen R1881 at 10 nM for 24 h
Read-out: 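Per-well raw luminescence of the androgen-driven firefly reporter and of the Renilla control, two replicates each, without normalisation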
Scale: firefly reporter light: higher = more light from androgen-responsive reporter; Renilla control light: higher = more constitutive control signal (cell number, transfection)
Rule for the call: 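Hit when the log firefly-to-Renilla ratio dropped or increased by a fixed fold versus the mean of GFP or LacZ controls across duplicate plates; lowering cut given as 1.5 and as 3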
Calls: active = hit: reporter lowered or raised; inactive = no hit

mesh #1 — firefly reporter light, replicate 1 = 3.83e5; firefly reporter light, replicate 2 = 4.35e5; Renilla control light, replicate 1 = 2.63e6; Renilla control light, replicate 2 = 3.01e6
mesh #2 — firefly reporter light, replicate 1 = 3.16e5; firefly reporter light, replicate 2 = 2.73e5; Renilla control light, replicate 1 = 2.39e6; Renilla control light, replicate 2 = 3.33e6
mesh #3 — firefly reporter light, replicate 1 = 1.38e5; firefly reporter light, replicate 2 = 1.36e5; Renilla control light, replicate 1 = 1.91e6; Renilla control light, replicate 2 = 2.20e6
SLIRP1 + anox — firefly reporter light, replicate 1 = 1.15e5; firefly reporter light, replicate 2 = 1.35e5; Renilla control light, replicate 1 = 9.50e5; Renilla control light, replicate 2 = 1.03e6
Peritrophin-15b — firefly reporter light, replicate 1 = 2.53e5; firefly reporter light, replicate 2 = 1.88e5; Renilla control light, replicate 1 = 2.19e6; Renilla control light, replicate 2 = 1.79e6
eIF3k (eukaryotic translation initiation factor 3 subunit k) #1 — firefly reporter light, replicate 1 = 9.08e5; firefly reporter light, replicate 2 = 8.80e5; Renilla control light, replicate 1 = 2.36e6; Renilla control light, replicate 2 = 3.05e6
eIF3k (eukaryotic translation initiation factor 3 subunit k) #2 — firefly reporter light, replicate 1 = 5.97e5; firefly reporter light, replicate 2 = 5.00e5; Renilla control light, replicate 1 = 7.18e5; Renilla control light, replicate 2 = 9.08e5
CG16800 #1 — firefly reporter light, replicate 1 = 2.05e5; firefly reporter light, replicate 2 = 2.20e5; Renilla control light, replicate 1 = 9.91e5; Renilla control light, replicate 2 = 1.45e6
CG16800 #2 — firefly reporter light, replicate 1 = 4.60e5; firefly reporter light, replicate 2 = 6.22e5; Renilla control light, replicate 1 = 1.09e6; Renilla control light, replicate 2 = 1.43e6
Pxd (Peroxidase) — firefly reporter light, replicate 1 = 77919; firefly reporter light, replicate 2 = 65723; Renilla control light, replicate 1 = 1.73e6; Renilla control light, replicate 2 = 1.67e6
Cln3 #1 — firefly reporter light, replicate 1 = 2.31e5; firefly reporter light, replicate 2 = 1.56e5; Renilla control light, replicate 1 = 1.93e6; Renilla control light, replicate 2 = 1.52e6
Cln3 #2 — firefly reporter light, replicate 1 = 2.82e5; firefly reporter light, replicate 2 = 2.80e5; Renilla control light, replicate 1 = 4.45e5; Renilla control light, replicate 2 = 4.92e5
Nup50 (Nucleoporin 50kD) #1 — firefly reporter light, replicate 1 = 8.94e5; firefly reporter light, replicate 2 = 6.26e5; Renilla control light, replicate 1 = 9.59e5; Renilla control light, replicate 2 = 7.88e5
Nup50 (Nucleoporin 50kD) #2 — firefly reporter light, replicate 1 = 3.21e5; firefly reporter light, replicate 2 = 4.21e5; Renilla control light, replicate 1 = 7.15e5; Renilla control light, replicate 2 = 5.56e5
CG18507 #1 — firefly reporter light, replicate 1 = 3.13e5; firefly reporter light, replicate 2 = 2.54e5; Renilla control light, replicate 1 = 3.69e5; Renilla control light, replicate 2 = 3.04e5
CG18507 #2 — firefly reporter light, replicate 1 = 2.98e5; firefly reporter light, replicate 2 = 2.88e5; Renilla control light, replicate 1 = 1.88e6; Renilla control light, replicate 2 = 1.91e6
dock (dreadlocks) #1 — firefly reporter light, replicate 1 = 6.32e5; firefly reporter light, replicate 2 = 7.40e5; Renilla control light, replicate 1 = 1.47e6; Renilla control light, replicate 2 = 1.19e6
dock (dreadlocks) #2 — firefly reporter light, replicate 1 = 3.29e5; firefly reporter light, replicate 2 = 2.34e5; Renilla control light, replicate 1 = 2.94e5; Renilla control light, replicate 2 = 6.00e5
CG5883 — firefly reporter light, replicate 1 = 1.52e5; firefly reporter light, replicate 2 = 1.73e5; Renilla control light, replicate 1 = 1.19e6; Renilla control light, replicate 2 = 7.96e5
CG33267 — firefly reporter light, replicate 1 = 3.65e5; firefly reporter light, replicate 2 = 2.86e5; Renilla control light, replicate 1 = 3.05e5; Renilla control light, replicate 2 = 1.72e5
CG10799 — firefly reporter light, replicate 1 = 2.25e5; firefly reporter light, replicate 2 = 1.12e5; Renilla control light, replicate 1 = 1.27e6; Renilla control light, replicate 2 = 7.76e5

Laid out differently: entries from further up.
| target | reagent | firefly reporter light, replicate 1 | firefly reporter light, replicate 2 | Renilla control light, replicate 1 | Renilla control light, replicate 2 |
| --- | --- | --- | --- | --- | --- |
| CG33267 | 1 | 3.65e5 | 2.86e5 | 3.05e5 | 1.72e5 |
| CG10799 | 1 | 2.25e5 | 1.12e5 | 1.27e6 | 7.76e5 |
